{
  "source": "patent US20080063601A1",
  "about": "“Compositions and methods relating to polycystic kidney disease” (priority 2004, published 2008)",
  "test_system": "Pkd1^−/− murine model of polycystic kidney disease",
  "format": "in vivo",
  "details": "0.07 mg/kg/day i.p. to pregnant mice, E10.5 until birth",
  "experimental": "As per approved IACUC animal protocol, Pkd1^+/−/Pkd1^+/− mice were mated and pregnant mice were divided into control (DMSO) or experimental (triptolide) groups. A total volume of 100 μl of PBS with no more than 5% DMSO or DMSO/0.07 mg/kg/day triptolide was injected i.p. with a 28 G ½ insulin syringe. Mice were weighed and injected starting at E10.5 until birth. All pups were examined for length and developmental staging such as whisker formation. Kidneys were harvested, weighed, and fixed in 4% paraformaldehyde before histological preparation.\nKidneys were prepared by sagittal cross-sectioning and hematoxylin and eosin staining. All kidneys were photographed under the same magnification (4×) and cystic burden was computed using Image J analysis software (NIH). The area of cysts within the total area of the kidney (pixels) was calculated as a final percentage of cystic burden in the kidney. Immunohistochemical analysis of active caspase-3 was completed as per manufacturer's protocol.\nFollowing successful Pkd1^+/− Pkd1^+/− matings, 0.07 mg/kg/day of triptolide or DMSO control was injected i.p. into pregnant mice until they gave birth. All pups were assessed for viability, length, developmental staging, and wet kidney weight. A total of 59 pups from DMSO treated females and 100 pups from triptolide treated females were examined for multiple parameters, such as genotypic distribution, developmental stage at time of birth, and average kidney weights (Table 1). […] Approximately 20% of all Pkd1^−/− mice were born alive from each treatment group. However, severe edematous abnormalities were obvious upon necropsy.",
  "note": "Where two headings read alike, the source gives them in different places.",
  "data": [
    {"smiles": "CC(C)[C@]12O[C@H]1[C@@H]1O[C@]13[C@]1(O[C@H]1C[C@H]1C4=C(CC[C@@]13C)C(=O)OC4)[C@@H]2O", "note": "[triptolide]", "values": [
      {"measurement": "Total Pkd1^+/+ (share of pups)", "value": "33 (33%)"},
      {"measurement": "Total Pkd1^+/− (share of pups)", "value": "46 (46%)"},
      {"measurement": "Total Pkd1^−/− (share of pups)", "value": 18, "unit": "%"},
      {"measurement": "Total Pkd1^−/− (share of pups)", "setting": "listed as Triptolide", "value": "18 (18%)"}
    ]}
  ]
}
